Results from publication doi:10.1101/396861.
These are yes or no findings as the source states them, for the method shown. Some entries that bind do so weakly or less than the wild type. Sequences can lack the tags named with a protein.

T1: AtCPL1 (C-Terminal Phosphatase Like 1), yeast two-hybrid bait (Arabidopsis thaliana) (UniProt Q5YDB6)
T1 sequence: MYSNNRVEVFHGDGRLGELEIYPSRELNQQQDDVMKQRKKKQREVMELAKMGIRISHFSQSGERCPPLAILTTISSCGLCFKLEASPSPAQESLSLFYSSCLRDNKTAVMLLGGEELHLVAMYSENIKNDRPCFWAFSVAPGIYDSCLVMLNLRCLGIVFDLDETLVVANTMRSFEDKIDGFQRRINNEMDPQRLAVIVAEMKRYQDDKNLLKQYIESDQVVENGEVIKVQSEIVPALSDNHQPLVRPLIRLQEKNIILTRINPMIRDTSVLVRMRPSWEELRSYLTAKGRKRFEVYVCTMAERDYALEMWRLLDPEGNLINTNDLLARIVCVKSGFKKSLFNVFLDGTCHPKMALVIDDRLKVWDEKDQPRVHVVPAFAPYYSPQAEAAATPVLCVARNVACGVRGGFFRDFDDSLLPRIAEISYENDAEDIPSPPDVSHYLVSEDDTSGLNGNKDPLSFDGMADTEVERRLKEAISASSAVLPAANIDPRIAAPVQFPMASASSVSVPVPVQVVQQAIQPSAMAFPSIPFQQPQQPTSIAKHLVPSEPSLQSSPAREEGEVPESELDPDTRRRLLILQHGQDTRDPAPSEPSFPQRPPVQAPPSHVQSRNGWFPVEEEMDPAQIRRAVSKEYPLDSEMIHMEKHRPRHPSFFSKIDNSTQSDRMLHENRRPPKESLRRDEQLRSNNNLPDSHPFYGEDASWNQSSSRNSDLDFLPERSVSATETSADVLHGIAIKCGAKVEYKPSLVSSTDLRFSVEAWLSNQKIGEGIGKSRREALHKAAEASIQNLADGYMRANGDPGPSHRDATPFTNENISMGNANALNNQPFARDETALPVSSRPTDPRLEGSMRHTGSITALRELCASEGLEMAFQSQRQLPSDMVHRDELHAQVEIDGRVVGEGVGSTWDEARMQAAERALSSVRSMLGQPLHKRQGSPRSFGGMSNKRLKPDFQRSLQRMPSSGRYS

T2: AtMPK3 (Arabidopsis thaliana mitogen-activated protein kinase-3), yeast two-hybrid fusion (Arabidopsis thaliana) (UniProt Q39023)
T2 sequence: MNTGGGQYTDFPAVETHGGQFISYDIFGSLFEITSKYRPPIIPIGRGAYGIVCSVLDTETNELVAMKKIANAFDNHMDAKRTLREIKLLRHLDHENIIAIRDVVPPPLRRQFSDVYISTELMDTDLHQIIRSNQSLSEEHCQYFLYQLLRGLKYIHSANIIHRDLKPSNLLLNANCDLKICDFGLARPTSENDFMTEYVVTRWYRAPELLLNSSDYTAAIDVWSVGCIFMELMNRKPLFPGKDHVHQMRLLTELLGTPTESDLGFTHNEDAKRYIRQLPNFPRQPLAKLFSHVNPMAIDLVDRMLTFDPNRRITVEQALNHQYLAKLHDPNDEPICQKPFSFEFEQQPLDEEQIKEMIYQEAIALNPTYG

T3: AtSE (SERRATE), yeast two-hybrid bait (Arabidopsis thaliana) (UniProt Q9ZVD0)
T3 sequence: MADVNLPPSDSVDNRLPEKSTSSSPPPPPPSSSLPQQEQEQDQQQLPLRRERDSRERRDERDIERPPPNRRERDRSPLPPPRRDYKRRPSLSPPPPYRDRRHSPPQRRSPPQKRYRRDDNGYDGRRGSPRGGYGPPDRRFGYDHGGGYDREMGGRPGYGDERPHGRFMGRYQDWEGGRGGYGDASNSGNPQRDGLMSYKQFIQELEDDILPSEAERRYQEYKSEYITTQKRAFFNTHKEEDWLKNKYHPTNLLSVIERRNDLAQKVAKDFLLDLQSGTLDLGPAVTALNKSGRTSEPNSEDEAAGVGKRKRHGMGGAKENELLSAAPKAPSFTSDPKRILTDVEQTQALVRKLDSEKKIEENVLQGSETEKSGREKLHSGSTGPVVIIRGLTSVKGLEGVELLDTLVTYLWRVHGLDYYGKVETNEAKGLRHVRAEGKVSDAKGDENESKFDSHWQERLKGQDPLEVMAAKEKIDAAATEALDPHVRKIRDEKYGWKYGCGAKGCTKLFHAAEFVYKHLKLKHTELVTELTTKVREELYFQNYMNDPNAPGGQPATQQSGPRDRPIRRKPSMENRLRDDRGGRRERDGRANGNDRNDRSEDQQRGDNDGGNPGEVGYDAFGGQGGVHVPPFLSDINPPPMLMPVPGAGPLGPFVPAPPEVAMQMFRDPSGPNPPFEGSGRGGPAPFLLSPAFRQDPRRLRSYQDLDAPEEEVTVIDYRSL


Experiments:
Assay in all cases: two-hybrid
[1] = target: T1, AtCPL1 (C-Terminal Phosphatase Like 1), yeast two-hybrid bait (Arabidopsis thaliana)
[2] = target: T2, AtMPK3 (Arabidopsis thaliana mitogen-activated protein kinase-3), yeast two-hybrid fusion (Arabidopsis thaliana)
[3] = target: T3, AtSE (SERRATE), yeast two-hybrid bait (Arabidopsis thaliana)

binding [1]	binding [2]	binding [3]	Binder
binds	binds	–	AtHYL1FL (full-length Arabidopsis thaliana HYPONASTIC LEAVES 1 / Double-stranded RNA Binding protein 1), yeast two-hybrid AD fusion (protein, UniProt O04492 1-419) MTSTDVSSGVSNCYVFKSRLQEYAQKYKLPTPVYEIVKEGPSHKSLFQSTVILDGVRYNSLPGFFNRKAAEQSAAEVALRELAKSSELSQCVSQPVHETGLCKNLLQEYAQKMNYAIPLYQCQKVETLGRVTQFTCTVEIGGIKYTGAATRTKKDAEISAGRTALLAIQSDTKNNLANYNTQLTVLPCEKKTIQAAIPLKETVKTLKARKAQFKKKAQKGKRTVAKNPEDIIIPPQPTDHCQNDQSEKIETTPNLEPSSCMNGLKEAAFGSVETEKIETTPNLEPPSCMNGLKEAAFGSVETEKIETTPNLEPPSCMNGLKEAAFGSVETEKIETTPNLEPSSCMNGLKEAAFGSVETEKIETTPNLEPPSCMNGLKEAAFGSVETEKIETTPNLESSSCMSGLKEAAFGSVETEASHA
binds	binds	binds	AtHYL1N (N-terminal fragment of AtHYL1, 1-170 AA), yeast two-hybrid AD fusion (domain or fragment, UniProt O04492 1-170) MTSTDVSSGVSNCYVFKSRLQEYAQKYKLPTPVYEIVKEGPSHKSLFQSTVILDGVRYNSLPGFFNRKAAEQSAAEVALRELAKSSELSQCVSQPVHETGLCKNLLQEYAQKMNYAIPLYQCQKVETLGRVTQFTCTVEIGGIKYTGAATRTKKDAEISAGRTALLAIQS
binds	binds	–	AtHYL1C (C-terminal fragment of AtHYL1, 171-419 AA), yeast two-hybrid AD fusion (domain or fragment, UniProt O04492 171-419) DTKNNLANYNTQLTVLPCEKKTIQAAIPLKETVKTLKARKAQFKKKAQKGKRTVAKNPEDIIIPPQPTDHCQNDQSEKIETTPNLEPSSCMNGLKEAAFGSVETEKIETTPNLEPPSCMNGLKEAAFGSVETEKIETTPNLEPPSCMNGLKEAAFGSVETEKIETTPNLEPSSCMNGLKEAAFGSVETEKIETTPNLEPPSCMNGLKEAAFGSVETEKIETTPNLESSSCMSGLKEAAFGSVETEASHA
